We go through 20 molecules from PubChem BioAssay AID662 (National Center for Advancing Translational Sciences (NCATS), 2007).

The structures appear in SMILES notation. The list shows a part of the results. These are further read-outs of the screen, such as a control signal, another cell line or another target. No call is given for them. Most of these compounds were active or inconclusive in the main read-out, so they are no random draw. Potencies come from curve fits of mixed quality, noted in brackets.

The experiment in a line: Cell signaling CRE-BLA (Fsk stim). The note with it: CHO CRE-bla reporter (cAMP response element driving beta-lactamase), forskolin EC10, beta-lactamase ratio; measured here: 460 nm blue channel. The gist of the method: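 Reporter-gene assay: CHO cells with beta-lactamase behind cAMP responsive elements, co-treated with compound and EC10 NKH 477 for 3 hours at 37 degrees Celsius. Activity came from the 460/530 nm CCF4 emission ratio.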
In general, AC50 refers to the concentration giving half of the maximal activity seen. As for `C=CCNc1nc(NCc2ccco2)nc(OCC)n1`, the half-maximal activity concentration (AC50) is 10 µM [rising, single point].

For the molecule `COc1ccc(C2(C)NC(=O)N(Cc3cc(Cl)cc4c3OCOC4)C2=O)cc1OC` (stereo not given), the AC50 is 3.98 µM [rising, partial curve]. Take `CC(C)c1ccc(S(=O)(=O)c2n[nH]n3c2nc(=O)c2ccccc23)cc1`: the AC50 was 0.501 µM [rising, full curve]. The same measure for `COc1cccc(NC(=O)Cn2nnc(C(=O)Nc3ccccc3)c2N)c1`: 6.31 µM [falling, partial curve, poor fit]. The figure for `NC(=O)COc1ccc(NC(=O)OCc2ccccc2)cc1` is 0.00316 µM [falling, full curve, poor fit].

With `CC1CN(C(=O)COC(=O)c2cccs2)CC(C)O1` (stereo not given), the AC50 is 5.01 µM [falling, full curve].

Turning to `CSc1ccccc1NC(=O)c1cc(-c2cccs2)on1`, the AC50 was 31.6 µM [falling, single point].

Consider `Cc1ccccc1NC(=O)CSC(N)=O`, for which the half-maximal activity concentration (AC50) is 0.501 µM [falling, full curve]. The same measure for `CCn1c2ccccc2c2cc(NC(=O)CSc3nnc(C4CC4)n3Cc3ccco3)ccc21`: 15.8 µM [falling, single point]. The same measure for `COCc1nc(-c2cc(OC)c(OC)c(OC)c2)no1`: 25.1 µM [rising, single point]; for `COc1ccc(-c2nnc(CSc3ncnc4sc5c(c34)CCC5)o2)cc1OC`: 2.51 µM [rising, full curve]; for `CCc1ccc(CNC(=O)CN2C(=O)COc3ccccc32)cc1`: 0.01 µM [falling, full curve, poor fit]. Turning to `Cc1cc(-c2ccccc2)n2ncc(C#N)c2n1`, the AC50 was 12.6 µM [rising, partial curve]. For `O=S(=O)(c1cccc(-c2csc(-c3cccnc3)n2)c1)N1CCCCC1`, the AC50 was 5.01 µM [rising, single point].

As for `COc1nc(-c2ccccc2)ccc1-c1noc(-c2cccnc2)n1`, the half-maximal activity concentration (AC50) is 3.16 µM [rising, full curve]. The same measure for `CN(C)c1cc(-c2cccc(NS(C)(=O)=O)c2)ncn1`: 2.51 µM [rising, partial curve, poor fit]; for `C=C(C)CC1Nc2ccccc2NC1CC(=C)C` (stereo not given): 15.8 µM [rising, single point]; for `COc1ccc(CC(=O)Nc2cc(Cl)ccc2O)cc1`: 12.6 µM [rising, single point].

For `COc1cc(C)c(CN2CCCCC2CO)cc1C` (stereo not given), the AC50 was 0.251 µM [rising, partial curve]. The figure for `CCn1nc(C(=O)OCc2c(C)noc2C)c2ccccc2c1=O` is 20 µM [rising, partial curve].
